The source of these data is publication PMC7990767.

Chains of the proteins cited; added tags and fusions are not shown.
UniProt P47239: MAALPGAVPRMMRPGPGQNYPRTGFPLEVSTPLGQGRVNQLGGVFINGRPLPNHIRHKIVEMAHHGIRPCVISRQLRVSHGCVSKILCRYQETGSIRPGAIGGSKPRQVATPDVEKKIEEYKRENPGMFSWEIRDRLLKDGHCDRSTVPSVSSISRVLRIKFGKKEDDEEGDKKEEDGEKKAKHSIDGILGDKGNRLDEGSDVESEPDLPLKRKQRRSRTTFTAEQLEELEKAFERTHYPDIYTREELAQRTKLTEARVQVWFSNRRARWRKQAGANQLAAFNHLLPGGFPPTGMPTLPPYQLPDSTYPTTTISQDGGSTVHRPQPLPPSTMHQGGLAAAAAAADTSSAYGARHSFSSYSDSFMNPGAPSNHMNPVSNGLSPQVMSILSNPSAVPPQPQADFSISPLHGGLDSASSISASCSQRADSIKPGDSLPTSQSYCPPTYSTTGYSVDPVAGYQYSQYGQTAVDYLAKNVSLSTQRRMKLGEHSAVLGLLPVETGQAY
UniProt P00520: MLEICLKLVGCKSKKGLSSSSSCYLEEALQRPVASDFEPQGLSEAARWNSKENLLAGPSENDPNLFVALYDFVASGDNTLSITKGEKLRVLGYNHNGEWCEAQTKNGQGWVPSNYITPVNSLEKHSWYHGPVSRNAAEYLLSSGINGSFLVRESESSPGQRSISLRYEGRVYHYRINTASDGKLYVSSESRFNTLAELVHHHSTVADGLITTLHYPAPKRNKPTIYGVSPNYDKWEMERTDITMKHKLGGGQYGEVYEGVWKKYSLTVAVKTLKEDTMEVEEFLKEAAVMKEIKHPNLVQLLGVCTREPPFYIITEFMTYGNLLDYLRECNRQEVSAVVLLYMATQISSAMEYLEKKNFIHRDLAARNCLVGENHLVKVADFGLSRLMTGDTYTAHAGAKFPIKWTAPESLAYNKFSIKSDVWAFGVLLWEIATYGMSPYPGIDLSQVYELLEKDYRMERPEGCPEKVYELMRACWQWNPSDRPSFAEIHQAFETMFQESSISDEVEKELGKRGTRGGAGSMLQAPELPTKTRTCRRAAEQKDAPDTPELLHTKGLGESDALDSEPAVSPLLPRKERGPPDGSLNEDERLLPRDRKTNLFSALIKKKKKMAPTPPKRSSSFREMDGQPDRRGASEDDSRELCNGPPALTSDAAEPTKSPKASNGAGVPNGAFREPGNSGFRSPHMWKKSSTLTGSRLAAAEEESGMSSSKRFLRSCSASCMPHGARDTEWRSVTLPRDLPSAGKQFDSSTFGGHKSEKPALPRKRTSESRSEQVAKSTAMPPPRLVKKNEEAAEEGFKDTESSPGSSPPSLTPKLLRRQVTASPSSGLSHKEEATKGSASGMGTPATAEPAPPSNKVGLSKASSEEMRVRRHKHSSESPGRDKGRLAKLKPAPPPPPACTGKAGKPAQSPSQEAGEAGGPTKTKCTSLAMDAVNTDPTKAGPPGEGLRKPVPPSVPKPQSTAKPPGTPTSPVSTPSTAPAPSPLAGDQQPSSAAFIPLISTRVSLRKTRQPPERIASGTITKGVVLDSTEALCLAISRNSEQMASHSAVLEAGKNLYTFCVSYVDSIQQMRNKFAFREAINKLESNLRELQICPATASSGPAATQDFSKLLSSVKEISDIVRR

These are yes or no findings as the source states them, for the method shown. Binding seen in cells or lysates may run through a third protein. Some binding calls cover weakened binding; strength is not graded here.

Assay [1] addresses Pax7 (mouse (endogenous in C2C12 cells and in mouse TA muscle)) (UniProt P47239). In words: co-IP; whole tibialis anterior muscle extracts at 30 dpi, injured and non-injured muscles, vehicle- or tamoxifen-treated Abl1 flox/flox-Pax7 creERT2 mice; IP of Pax7, c-Abl detected by Western blot. A general note: A western blot detects proteins with antibodies after separation by electrophoresis.

For assay [2] the target is unchanged. Nature of the assay: co-IP; C2C12 cells in proliferation medium, treated with vehicle or 10 uM Imatinib for 24 h; lysis in modified RIPA (50 mM Tris-HCl pH 7.4, 150 mM NaCl, 1% IGEPAL); IP with anti-Pax7 or normal mouse IgG on Dynabeads Protein G, 2 h at room temperature; c-Abl detected by Western blot.

On to “Abelson non-receptor tyrosine kinase 1 (c-Abl) (from UniProt P00520 1-1123) (enzyme)”, for which the binding entry in assay [1] and in assay [2] was “binds” each time.
